# Measured values: the supplement of paper PMC3682954
# Where “and” joins values, the source holds several entries; their conditions need not be identical. Identical values can stand only once. Counter-ions that a name gives are not always drawn. ± gives the standard deviation of the averaged measurements. The list shows a part of the results. Single values are uncertain, as repeats are few or missing.
# System: RAW 264.7
# Test: cell viability (MTT) relative to vehicle control; higher = more viable cells
# Details: stimulus: HMGB1 5 ug/ml, 18 h
# [1] = compound concentration: 1 ug/ml
SMILES,cell viability (compound concentration: 3 uM),cell viability [1] [%]
CN(C)CC/C=C1/c2ccccc2Sc2ccc(Cl)cc21,94.6%,
CN(C)CC/C=C1/c2ccccc2Sc2ccc(Cl)cc21 [Chlorprothixene hydrochloride],97.1 ± 5.1%,
NC(Cc1cc(I)c(Oc2cc(I)c(O)c(I)c2)c(I)c1)C(=O)O (stereo not drawn) [Thyroxine (L)],138%,
OC(CN1CCC(Cc2ccc(F)cc2)CC1)c1ccc(Cl)cc1 (stereo not drawn) [Eliprodil],95.8%,
CC(=O)[C@H]1CC[C@H]2[C@@H]3CCC4=CC(=O)CC[C@]4(C)[C@H]3CC[C@]12C [Progesterone],126 ± 16%,105
CC(=O)[C@H]1CC[C@H]2[C@@H]3CCC4=CC(=O)CC[C@]4(C)[C@H]3CC[C@]12C,104 ± 5.6%,
"O=C1C[C@@H](c2ccc(O)c(O)c2)Oc2cc(O)cc(O)c21 [Eriodictyol;  (3',4',5,7-tetrahydroxyflavanone)]",,91.8
CN[C@H](CC(=O)O)C(=O)O [N-Methyl-D-aspartic acid],104%,
CN[C@@H]1[C@H](O)[C@H](NC)[C@H]2O[C@@]3(O)C(=O)C[C@@H](C)O[C@H]3O[C@@H]2[C@H]1O [Spectinomycin dihydrochloride pentahydrate],,92.3
CN[C@@H]1[C@H](O)[C@H](NC)[C@H]2O[C@@]3(O)C(=O)C[C@@H](C)O[C@H]3O[C@@H]2[C@H]1O [Spectinomycin],113%,
CN[C@@H]1[C@H](O)[C@H](NC)[C@H]2O[C@@]3(O)C(=O)C[C@@H](C)O[C@H]3O[C@@H]2[C@H]1O,101%,
CN[C@@H]1[C@H](O)[C@H](NC)[C@H]2O[C@@]3(O)C(=O)C[C@@H](C)O[C@H]3O[C@@H]2[C@H]1O [Spectinomycin dihydrochloride],98.6%,
NS(=O)(=O)c1cc2c(cc1Cl)NC(C(Cl)Cl)NS2(=O)=O (stereo not drawn),108%,
NS(=O)(=O)c1cc2c(cc1Cl)NC(C(Cl)Cl)NS2(=O)=O (stereo not drawn) [Trichlormethiazide],111%,
NS(=O)(=O)c1cc2c(cc1Cl)NC(C(Cl)Cl)NS2(=O)=O (stereo not drawn) [Trichloromethiazide],105%,
CC(C)Nc1cccnc1N1CCN(C(=O)c2cc3cc(NS(C)(=O)=O)ccc3[nH]2)CC1 [Delavirdine],105%,
"Cn1c(=O)c2[nH]c(-c3ccccc3)nc2n(C)c1=O [1,3-Dimethyl-8-phenylxanthine]",98.7%,
CN(CCO)CC(O)Cn1cnc2c1c(=O)n(C)c(=O)n2C (stereo not drawn),100%,
C#Cc1cccc(Nc2ncnc3cc(OCCOC)c(OCCOC)cc23)c1 [Erlotinib],109 ± 10%,
Cc1onc(-c2ccccc2Cl)c1C(=O)N[C@@H]1C(=O)N2[C@@H]1SC(C)(C)[C@@H]2C(=O)O [Cloxacillin sodium salt],93.9%,
Cc1onc(-c2ccccc2Cl)c1C(=O)N[C@@H]1C(=O)N2[C@@H]1SC(C)(C)[C@@H]2C(=O)O,103%,
CCN(CC)c1ncnc2c1ncn2C1OC(CO)C(O)C1O (stereo not drawn),,90.2
CN[C@@H]1[C@@H](O[C@H]2O[C@H](CO)[C@@H](N)[C@H](O)[C@H]2O)OC2C[C@@H](N)[C@@H](O[C@H]3[C@H](O)[C@@H](O)[C@H](N)C[C@@H]3N)OC2[C@@H]1O (stereo partly drawn),103%,
CN[C@@H]1[C@@H](O[C@H]2O[C@H](CO)[C@@H](N)[C@H](O)[C@H]2O)OC2C[C@@H](N)[C@@H](O[C@H]3[C@H](O)[C@@H](O)[C@H](N)C[C@@H]3N)OC2[C@@H]1O (stereo partly drawn) [Apramycin],105 ± 16%,
C[C@@H]1NC(=O)[C@@H](N)CNC(=O)[C@H](C2CCNC(=N)N2)NC(=O)/C(=C/NC(N)=O)NC(=O)[C@H](CNC(=O)CC(N)CCCN)NC1=O.N=C1NCC[C@H]([C@@H]2NC(=O)/C(=C/NC(N)=O)NC(=O)[C@H](CNC(=O)C[C@@H](N)CCCN)NC(=O)[C@H](CO)NC(=O)[C@@H](N)CNC2=O)N1,105%,
CC12CCC(CC1=O)C2(C)C [D-Camphor],,101
CC12CCC(CC1=O)C2(C)C (stereo not drawn),107%,

SMILES,cell viability (compound concentration: 3 uM),cell viability [1] [%]
OC[C@H]1NC[C@H](O)[C@@H](O)[C@@H]1O [1-Deoxynojirimycin hydrochloride],96%,
CCCCCCCCCCCCCCCCCCCCCCO,109%,
NCCCC(=O)O [gamma-AMINOBUTYRIC ACID],103%,
Cc1c(-c2ccccc2)oc2c(C(=O)OCCN3CCCCC3)cccc2c1=O [Flavoxate hydrochloride],101%,
Cn1cnc2c1c(=O)[nH]c(=O)n2C,104%,
Cn1cnc2c1c(=O)[nH]c(=O)n2C [Theobromine],110.6 ± 0.72%,100
CCOc1ccc2ccccc2c1C(=O)N[C@@H]1C(=O)N2[C@@H]1SC(C)(C)[C@@H]2C(=O)O,109%,
CCOc1ccc2ccccc2c1C(=O)N[C@@H]1C(=O)N2[C@@H]1SC(C)(C)[C@@H]2C(=O)O [Nafcillin sodium salt monohydrate],98.6%,
CN(C)C/C=C(/c1ccc(Br)cc1)c1cccnc1 [Zimelidine dihydrochloride],105%,
CN(C)C/C=C(/c1ccc(Br)cc1)c1cccnc1 [Zimelidine dihydrochloride monohydrate],100%,
CC(C)(CO)C(O)C(=O)NCCCO (stereo not drawn),107%,
CC(C)(CO)C(O)C(=O)NCCCO (stereo not drawn) [Panthenol (D)],107%,
NCCCNCCCCNCCCN [Spermine tetrahydrochloride],116%,
CCN(CC)CCNC(=O)c1cc(Cl)c(N)cc1OC [Metoclopramide monohydrochloride],94.6%,
CCN(CC)CCNC(=O)c1cc(Cl)c(N)cc1OC,108%,
CCN(CC)CCNC(=O)c1cc(Cl)c(N)cc1OC [Metoclopramide hydrochloride],99.8%,
CCN(CC)CCNC(=O)c1cc(Cl)c(N)cc1OC [Metoclopramide],110%,
Cc1ccc2c(c1)c1c3n2CCNC3CCC1 (stereo not drawn) [Pirlindole mesylate],85.7%,
CC(=O)N[C@@H](Cc1c[nH]c2ccccc12)C(=O)OCc1cc(C(F)(F)F)cc(C(F)(F)F)c1,96.1%,
NC/C=C/C(=O)O [(E)-4-amino-2-butenoic acid],111%,
"CCN(CC)CCOC(=O)c1cc(Cl)c(N)cc1OC [SDZ-205,557 hydrochloride]",111%,
C=C1/C(=C\C=C2/CCC[C@]3(C)[C@@H]([C@H](C)CCCC(C)C)CC[C@@H]23)C[C@@H](O)C[C@@H]1O [Alfacalcidol],110 ± 17%,
CCC[C@@H]1C[C@@H](C(=O)N[C@@H]([C@H]2O[C@H](SC)[C@H](O)[C@@H](O)[C@H]2O)[C@H](C)Cl)N(C)C1,101.7 ± 0.81%,
CCC[C@@H]1C[C@@H](C(=O)N[C@@H]([C@H]2O[C@H](SC)[C@H](O)[C@@H](O)[C@H]2O)[C@H](C)Cl)N(C)C1 [Clindamycin],119 ± 14%,
CCC[C@@H]1C[C@@H](C(=O)N[C@@H]([C@H]2O[C@H](SC)[C@H](O)[C@@H](O)[C@H]2O)[C@H](C)Cl)N(C)C1 [Clindamycin hydrochloride],97.2%,
O=C(O)C1OC(O)C(O)C(O)C1O (stereo not drawn),,96.8
O=C(O)CCNC(=O)c1ccccc1,109%,

SMILES,cell viability (compound concentration: 3 uM),cell viability [1] [%]
O=C(N[C@H](CO)[C@H](O)c1ccc([N+](=O)[O-])cc1)C(Cl)Cl,106 ± 9%,
O=C(N[C@H](CO)[C@H](O)c1ccc([N+](=O)[O-])cc1)C(Cl)Cl [Chloramphenicol],103 ± 5%,99.9
C[n+]1c2cc(N)ccc2cc2ccc(N)cc21,83.7 ± 23%,
CN1CCC[C@@H]1Cc1c[nH]c2ccc(CCS(=O)(=O)c3ccccc3)cc12,96.4%,
CC(C)[N+](C)(CCOC(=O)C1c2ccccc2Oc2ccccc21)C(C)C [Propantheline bromide],105 ± 1.1%,
CC(C)[N+](C)(CCOC(=O)C1c2ccccc2Oc2ccccc21)C(C)C,101%,
CN(C)CCC=C1c2ccccc2COc2ccccc21,98.5%,
CN(C)CCC=C1c2ccccc2COc2ccccc21 [Doxepin hydrochloride],106 ± 5.6%,
CN(C)CCC=C1c2ccccc2COc2ccccc21 [Doxepin],102%,
O=C(O)Cc1c[nH]c2ccc(O)cc12 [5-Hydroxyindolacetic acid],102%,
CCN(c1nc(N)c(C(=O)NC(=N)N)nc1Cl)C(C)C [5-(N-Ethyl-N-isopropyl)amiloride],97.5%,
OCc1cccnc1,101% and 97%,
COc1ccccc1Oc1c(NS(=O)(=O)c2ccc(C(C)(C)C)cc2)nc(-c2ncccn2)nc1OCCO [Bosentan],106 ± 9.8%,
Nc1ccccc1S(N)(=O)=O [2-Aminobenzenesulfonamide],95.7%,
C[N+](C)(C)CC=O [Betaine aldehyde chloride],103%,
OC[C@H]1O[C@@H](n2cnc3c(NC4CCCC4)ncnc32)[C@H](O)[C@@H]1O [N6-Cyclopentyladenosine],103%,
O=c1cc(-c2ccc(O)cc2O)oc2ccccc12,,83.1
CCCn1c(=O)[nH]c(=O)c2[nH]cnc21 [3-n-Propylxanthine],98.4%,
O=C(O)c1cn(C2CC2)c2cc(N3CCNCC3)c(F)cc2c1=O [Ciprofloxacin hydrochloride],102%,
O=C(O)c1cn(C2CC2)c2cc(N3CCNCC3)c(F)cc2c1=O,118 ± 23%,
O=C(O)c1cn(C2CC2)c2cc(N3CCNCC3)c(F)cc2c1=O [Ciprofloxacin],92.3%,
O[C@H]1CCN2Cc3ccccc3N=C12 [Peganine HCl],,93.1
COc1ccc(-c2cc(=S)ss2)cc1 [Anethole-trithione],112 ± 3.8%,
Cc1cc(C(C)(C)C)c(O)c(C(C)(C)C)c1,114%,
C1COC(NC(C2CC2)C2CC2)=N1 [Rilmenidine hemifumarate],126%,
C1COC(NC(C2CC2)C2CC2)=N1 [Rilmenidine],103%,
